Source: patent publication CN117396514A
Results are given in words; binding and its absence hold for the method and conditions named. Some results given as binding are weak or reduced against the parent protein; the word gives no strength. Sequences can lack the tags named with a protein.

What was measured:
[1] = molecular target: T1, 人MerTK, 过表达于CHO细胞 (CHO-huMerTK OE) (human) (UniProt Q12866); experiment: FACS on CHO-huMerTK OE cells
T1 sequence: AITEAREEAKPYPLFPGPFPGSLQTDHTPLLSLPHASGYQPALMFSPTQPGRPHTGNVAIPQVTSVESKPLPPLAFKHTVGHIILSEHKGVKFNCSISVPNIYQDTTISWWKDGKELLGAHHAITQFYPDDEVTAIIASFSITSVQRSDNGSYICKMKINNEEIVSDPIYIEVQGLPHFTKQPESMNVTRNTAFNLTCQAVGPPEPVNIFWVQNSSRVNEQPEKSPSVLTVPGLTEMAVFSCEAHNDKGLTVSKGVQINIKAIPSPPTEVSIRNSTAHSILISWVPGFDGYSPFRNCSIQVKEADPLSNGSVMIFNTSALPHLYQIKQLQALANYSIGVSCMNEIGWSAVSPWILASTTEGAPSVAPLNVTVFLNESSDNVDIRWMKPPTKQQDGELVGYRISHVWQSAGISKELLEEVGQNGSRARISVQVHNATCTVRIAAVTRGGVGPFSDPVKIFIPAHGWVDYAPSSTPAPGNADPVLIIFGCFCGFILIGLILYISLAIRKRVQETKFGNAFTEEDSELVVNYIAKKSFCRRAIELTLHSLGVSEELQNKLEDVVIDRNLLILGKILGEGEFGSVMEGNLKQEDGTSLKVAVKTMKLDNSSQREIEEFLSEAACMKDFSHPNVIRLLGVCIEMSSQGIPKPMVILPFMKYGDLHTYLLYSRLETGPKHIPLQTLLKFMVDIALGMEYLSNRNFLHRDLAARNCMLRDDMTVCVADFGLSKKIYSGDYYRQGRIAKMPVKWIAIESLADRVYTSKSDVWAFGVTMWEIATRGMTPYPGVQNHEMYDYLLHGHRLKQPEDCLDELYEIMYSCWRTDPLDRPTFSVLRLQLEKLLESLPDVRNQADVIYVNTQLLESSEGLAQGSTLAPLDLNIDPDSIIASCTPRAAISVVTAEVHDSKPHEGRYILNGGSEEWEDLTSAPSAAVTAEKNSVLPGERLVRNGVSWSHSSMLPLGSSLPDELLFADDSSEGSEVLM

[2] = molecular target: T2, 人MerTK, M2c分化的人巨噬细胞上 (human) (UniProt Q12866); experiment: FACS on M2c differentiated human macrophages
T2 sequence: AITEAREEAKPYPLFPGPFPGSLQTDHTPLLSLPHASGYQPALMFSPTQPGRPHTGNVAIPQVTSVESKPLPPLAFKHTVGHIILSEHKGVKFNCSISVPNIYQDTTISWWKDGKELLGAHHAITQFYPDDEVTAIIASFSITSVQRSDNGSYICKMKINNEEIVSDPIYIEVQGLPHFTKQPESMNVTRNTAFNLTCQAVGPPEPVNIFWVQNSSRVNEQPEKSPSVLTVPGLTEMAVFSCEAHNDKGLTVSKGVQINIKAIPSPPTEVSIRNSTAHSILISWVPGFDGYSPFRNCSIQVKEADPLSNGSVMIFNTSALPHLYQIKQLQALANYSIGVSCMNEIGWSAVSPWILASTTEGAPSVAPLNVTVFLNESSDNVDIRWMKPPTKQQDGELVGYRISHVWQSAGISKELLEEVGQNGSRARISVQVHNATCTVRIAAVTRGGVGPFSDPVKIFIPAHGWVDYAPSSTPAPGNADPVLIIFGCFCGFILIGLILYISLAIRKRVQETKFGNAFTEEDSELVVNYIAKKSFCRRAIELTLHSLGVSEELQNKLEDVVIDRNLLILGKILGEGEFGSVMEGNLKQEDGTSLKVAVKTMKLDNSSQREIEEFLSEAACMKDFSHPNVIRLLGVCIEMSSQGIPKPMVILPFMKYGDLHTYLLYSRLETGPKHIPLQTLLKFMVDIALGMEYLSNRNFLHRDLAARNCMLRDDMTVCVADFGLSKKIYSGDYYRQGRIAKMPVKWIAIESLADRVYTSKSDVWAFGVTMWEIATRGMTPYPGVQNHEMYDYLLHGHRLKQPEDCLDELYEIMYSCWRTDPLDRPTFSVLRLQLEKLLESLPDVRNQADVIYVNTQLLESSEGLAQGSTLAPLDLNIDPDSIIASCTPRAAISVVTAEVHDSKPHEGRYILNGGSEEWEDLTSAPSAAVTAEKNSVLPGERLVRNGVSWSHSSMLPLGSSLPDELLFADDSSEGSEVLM

B1: 单价(单臂)抗MerTK抗体MTK-33.11 (Fc LALAPS) (antibody, V domains shown)
VH: QVQLVQSGAEVKKPGASVKVSCKASGYTFTSYWMHWVRQAPGQGLEWIGVIDPSDNYINYNQKFQGRVTMTRDTSTSTVYMELSSLRSEDTAVYYCAREAWTRGYFDYWGQGTLVTVSS
VL: DIQMTQSPSSLSASVGDRVTITCQASRSVRNTVAWYQQKPGKAPKLLIYYASNRYTGVPSRFSGSGSGTDFTFTISSLQPEDIATYYCQQDYRSPFTFGQGTKLEIK
modifications: Dylight650 conjugate in the FACS binding assay (site not stated)
For B1, the binding [1] was “binds” and the binding [2] was “binds”.
